Assay [1] concerns the target importin-7 (human (endogenous in HeLa)) (UniProt O95373). Nature of the assay: co-IP.
For assay [2] the target is unchanged. Nature of the assay: proximity ligation.
The target is the same in assay [3]. In words: co-IP. This is another data set of the same source.

By UniProt entry, the sequences of proteins in these tests, tags left out.
UniProt O95373: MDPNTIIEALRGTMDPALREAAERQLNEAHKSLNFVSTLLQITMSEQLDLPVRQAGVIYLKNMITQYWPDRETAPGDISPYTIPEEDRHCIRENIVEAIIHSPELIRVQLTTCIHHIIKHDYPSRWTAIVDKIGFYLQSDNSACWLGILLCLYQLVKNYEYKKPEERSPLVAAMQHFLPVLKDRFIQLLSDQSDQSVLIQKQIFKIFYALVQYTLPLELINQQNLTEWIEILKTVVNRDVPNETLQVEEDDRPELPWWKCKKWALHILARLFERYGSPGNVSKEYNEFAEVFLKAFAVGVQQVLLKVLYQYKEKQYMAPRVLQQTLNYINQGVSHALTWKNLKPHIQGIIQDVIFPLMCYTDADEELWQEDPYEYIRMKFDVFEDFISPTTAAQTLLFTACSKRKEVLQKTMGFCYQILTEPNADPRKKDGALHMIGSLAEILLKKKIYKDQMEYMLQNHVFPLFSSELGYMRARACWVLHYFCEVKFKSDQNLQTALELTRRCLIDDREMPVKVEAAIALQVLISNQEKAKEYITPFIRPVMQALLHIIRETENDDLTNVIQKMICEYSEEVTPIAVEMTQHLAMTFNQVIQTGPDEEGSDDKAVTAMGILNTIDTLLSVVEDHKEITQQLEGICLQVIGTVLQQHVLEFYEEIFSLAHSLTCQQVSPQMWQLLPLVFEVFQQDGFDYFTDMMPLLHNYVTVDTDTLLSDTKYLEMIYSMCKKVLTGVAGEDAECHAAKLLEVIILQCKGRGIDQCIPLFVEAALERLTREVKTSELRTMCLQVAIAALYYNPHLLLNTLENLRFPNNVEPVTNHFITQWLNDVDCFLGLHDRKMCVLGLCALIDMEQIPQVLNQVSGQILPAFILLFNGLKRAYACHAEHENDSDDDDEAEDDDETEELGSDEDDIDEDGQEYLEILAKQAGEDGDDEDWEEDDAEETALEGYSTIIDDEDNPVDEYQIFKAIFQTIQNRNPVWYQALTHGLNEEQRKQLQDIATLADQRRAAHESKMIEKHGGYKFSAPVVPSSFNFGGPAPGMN
UniProt P03107: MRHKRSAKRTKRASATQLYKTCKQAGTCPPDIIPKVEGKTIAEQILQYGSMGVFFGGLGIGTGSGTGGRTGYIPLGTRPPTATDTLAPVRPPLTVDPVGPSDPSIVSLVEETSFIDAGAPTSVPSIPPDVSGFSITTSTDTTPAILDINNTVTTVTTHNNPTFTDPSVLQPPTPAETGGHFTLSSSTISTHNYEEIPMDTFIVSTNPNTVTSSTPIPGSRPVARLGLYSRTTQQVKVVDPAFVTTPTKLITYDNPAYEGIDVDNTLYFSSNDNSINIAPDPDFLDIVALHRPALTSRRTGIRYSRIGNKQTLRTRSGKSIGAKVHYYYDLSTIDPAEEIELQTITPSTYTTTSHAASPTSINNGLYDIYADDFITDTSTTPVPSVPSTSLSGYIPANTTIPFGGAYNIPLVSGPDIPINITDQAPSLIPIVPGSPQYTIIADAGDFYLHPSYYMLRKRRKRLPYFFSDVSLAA

Results are given in words; binding and its absence hold for the method and conditions named. In cells and extracts the contact can be indirect. Some binding calls cover weakened binding; strength is not graded here.

As to “3xFLAG-tagged HPV16 L2 (from UniProt P03107 1-473)”, the binding entry in assay [1] was “no binding (condition: at 8 and 16 hpi)”; in assay [2], “binds”; in assay [3], “binds”.
